# Laboratory results from patent US9993564B2, “Blood brain barrier shuttle” (Hoffmann-La Roche Inc., priority 2014, dated 2018).
# Chains of the proteins cited; added tags and fusions are not shown. Residues count along the entry.
# UniProt P56819, 46-501: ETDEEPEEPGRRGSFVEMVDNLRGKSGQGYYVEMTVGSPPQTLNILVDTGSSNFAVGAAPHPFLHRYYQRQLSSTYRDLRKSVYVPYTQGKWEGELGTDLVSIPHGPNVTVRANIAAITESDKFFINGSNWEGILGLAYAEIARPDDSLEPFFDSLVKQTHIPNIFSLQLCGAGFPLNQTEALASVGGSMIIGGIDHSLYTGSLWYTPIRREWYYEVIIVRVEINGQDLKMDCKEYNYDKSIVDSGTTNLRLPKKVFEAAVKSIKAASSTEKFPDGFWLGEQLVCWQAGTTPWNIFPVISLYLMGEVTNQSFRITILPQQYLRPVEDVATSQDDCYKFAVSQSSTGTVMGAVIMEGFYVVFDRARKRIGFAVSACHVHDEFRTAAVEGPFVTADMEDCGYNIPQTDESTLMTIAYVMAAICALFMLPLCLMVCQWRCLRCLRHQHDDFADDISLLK
# Part of at least one peptide drawing is inferred or uncertain, most often the ends. No end group written: not given here.
# Biological target: T1, BACE1 (Rattus norvegicus, UniProt P56819)
# T1 construct: from tissue; host or cells: live cisterna-magna-cannulated Wistar rats; endogenous enzyme in periphery and CNS
# Assay: Aβ(1-40) ELISA in blood and CSF after i.v. injection of streptavidin-peptide-BACE1 inhibitor complex
# Format: in vivo
# Conditions: FIGS. 7A and 7B; shuttle peptide and BACE1 inhibitor peptide 3:1 on streptavidin versus inhibitor alone
sequence,measurement,value
"RLSSVDSDLSGC [SEQ. ID. NO. 8, RLSSVDSDLSGC]",brain BACE1 peptide inhibitory activity,enhances
